Data: PubChem BioAssay AID1487 (National Center for Advancing Translational Sciences (NCATS), 2009)
Where “and” joins values, the source holds several entries; their conditions need not be identical. Identical values can stand only once. The list shows a part of the results. The main result of the screen is listed elsewhere. These columns were measured beside it and carry no call. Most of these compounds were active or inconclusive in the main read-out, so they are no random draw. Words in brackets tell the shape of the fitted curve; partial curves, single points and poor fits give uncertain potencies.

Assay: qHTS Assay for Modulators of Lamin A Splicing
Conditions: HeLa LMNA splicing GFP/RFP minigene ratio, 48 h
Excerpt: NCGC Assay Overview: Hutchinson-Gilford Progeria Syndrome (HGPS) is a pediatric premature aging disease caused by a spontaneous mutation in the lamin A/C (LMNA) gene. The mutation activates a cryptic splice site in the LMNA pre-mRNA which results in production of a pre-lamin A protein that cannot be processed properly. The mutant protein accumulates in the nucleus and negatively affects numerous cellular functions. Correction of the splicing defect in HGPS patient cells using a targeted oligonucleotide (exo11) leads to reversal of the cellular disease phenotypes. To identify small molecule modulators of aberrant LMNA splicing, a homogenous assay was constructed in HeLa cells that used a GFP containing minigene to report on correction of aberrant splicing in lamin A and a RFP (DsRed2) to report on cell viability, uniformity and nonspecific effects on the assay signal. This assay was adapted to laser-scanning microplate cytometry (Acumen, TTP Labtech) where miniaturization of the assay to a 1,536-well plate format was possible. References: Bowen, W. P.; Wylie, P. G. Application of Laser-Scanning Fluorescence Microplate Cytometry in High Content Screening. Assay Drug Dev Technol 2006;4:209-221. Scaffidi P, Misteli T. Reversal of the cellular phenotype in the premature aging disease Hutchinson-Gilford progeria syndrome. Nat.
NCGC Assay Protocol Summary: Reagents/Controls: Stable clones expressing DsRed2 and lamin A-EGFP were generated by Cell and Molecular Technologies in S3 HeLa cells. HeLa cells were prepared for the assay when they were 70-90% confluent. The cells were counted and resuspended in Opti-MEM I (no phenol red; Gibco), 2% FBS, 1% penicillin/ streptomycin (Gibco) at concentration of 120 cells/uL concentration. The suspension was passed through a Falcon basket filter with pore size 40um (Beckton Dickson). Control titrations: column […] 1536-well plate contained a sixteen point titration (1:2 dilutions) in duplicate of ancitabine (Sigma: A8598) beginning at 40 uM final concentration. Column 2 contained a sixteen point titration (1:2 dilutions) of cycloheximide beginning at 1.4 mM final concentration. Column 3 contained ancitabine at 40 uM and column 4 contained was the vehicle control (0.5% DMSO final concentration). Assay Steps: 5 uL of HeLa cells were plated in Aurora LoBase black clear bottom (cyclic-olefin polymer) 1536-well plates at a final density of 600 cells/well. Controls and library compounds were added with a 1536-well pin array using the Kalypsys pin-tool. The plates were then incubated for 48 hrs in a cell-culture incubator (37 °C; 5% CO2, 98% humidity). Following incubation the plates were read on the Acumen Explorer using the 488 nm laser. Data was collected on objects between 10 and 100 um in size. Cell objects were defined by a 15 um width x 10 um depth filter. The ratio of the total object intensity in PMT1 (500-530 nm emission; GFP) over PMT3 (575-640 nm emission; RFP) was calculated for analysis. Keywords: NIH Roadmap, MLSCN, MLI, MLSMR, qHTS, NCGC, lamin A, Progeria, RNA splicing.

[1] = measured here: RFP viability control channel
[2] = measured here: GFP splicing reporter channel

Row | SMILES | AC50 [1] | AC50 [2]
1 | COc1cccc(OC)c1C1=NCC(=O)Nc2c1oc1ccc(Br)cc21 | 1.12 µM [rising, full curve, poor fit] | –
2 | CC(=O)Nc1ccc(N(C(=O)Cn2nnc3ccccc32)C(C(=O)NC2CCCC2)c2ccc(O)c(O)c2)cc1 (centres undefined) | 35.5 µM [rising, partial curve] | 0.0562 µM [rising, full curve, poor fit]
3 | Cc1c(O)c(O)cc2c1CC=C1[C@]3(C)CC[C@]4(C)CC[C@@](C)(C(=O)O)CC4[C@]3(C)CC[C@]12C (some centres undefined) | 12.6 µM [falling, partial curve] | 22.4 µM [falling, single point]
4 | CCN(CC)C(=O)Oc1ccc(Cl)c2ccccc12 | 11.2 µM [rising, single point] | –
5 | O=C1NC(=S)N(c2ccccc2F)C(=O)/C1=C\c1cccs1 | 31.6 µM [falling, single point] | 35.5 µM [falling, single point]
6 | CC(C)(C)c1nc(N2CCN(C(=O)c3ccco3)CC2)c2nnn(Cc3ccccc3Cl)c2n1 | 0.282 µM [rising, full curve, poor fit] | –
7 | CC(=O)O.CC(=O)O.[Cd] | 10 µM [falling, partial curve, poor fit] | 2.82 µM [rising, partial curve]
8 | CCC(C)OC(=O)c1c(N)n(Cc2cccs2)c2nc3ccccc3nc12 (centres undefined) | 1.26 µM [falling, partial curve] | 1.26 µM [falling, partial curve]
9 | Oc1cc2c(cc1O)[C@H]1c3ccccc3CNC1CC2 (some centres undefined) | 14.1 µM [falling, partial curve] | 12.6 µM [falling, partial curve]
10 | N=c1c2c(n(Cc3ccc(Cl)cc3Cl)c3c1CCC3)CCCC2 | 12.6 µM [rising, partial curve] | –
11 | CC(=O)c1c(O)c(C)c(O)c(Cc2c(O)c3c(c(C(=O)/C=C/c4ccccc4)c2O)OC(C)(C)C=C3)c1O | 5.01 µM [rising, full curve] | 3.98 µM [falling, full curve, poor fit]
12 | COC(=O)c1c(C)n(Cc2ccco2)c2ccc(O)cc12 | 15.8 µM [rising, partial curve] | –
13 | Cc1ccccc1N1C(=O)NC(=O)/C(=C\c2cc(Br)c(N3CCOCC3)o2)C1=O | 35.5 µM [falling, single point] | 35.5 µM [falling, single point]
14 | Cc1cc(O)cc2c1O[C@](C)(CCC[C@H](C)CCC[C@H](C)CCCC(C)C)CC2 | 0.891 µM [falling, single point] | 0.00282 µM [falling, full curve, poor fit]
15 | COc1ccccc1N1CCNCC1 | 6.31 µM [falling, partial curve, poor fit] | 5.62 µM [falling, partial curve, poor fit]
16 | COC(=O)CCc1nc2c(C#N)c(-c3ccc(Cl)cc3)ccn2n1 | 0.0355 µM [falling, full curve, poor fit] | –
17 | CCCNC(=O)c1cnn2c(C)c(Cc3c(C)cc(C)cc3C)c(C)nc12 | 35.5 µM [falling, single point] | 17.8 µM [falling, partial curve, poor fit]
18 | Nc1ncnc2c1ncn2[C@@H]1O[C@H](COP(=O)(O)OP(=O)(O)OP(=O)(O)O)[C@@H](O)[C@H]1O | 0.00501 µM [falling, full curve, poor fit] | 3.16 µM [falling, full curve, poor fit]
19 | C[C@]12CC[C@@H]3c4cc(O)c(O)cc4CC[C@H]3[C@@H]1CC[C@@H]2O | 17.8 µM [falling, single point] | 12.6 µM [falling, partial curve, poor fit]
20 | CN1C[C@@H](CS(=O)(=O)N(C)C)C[C@@H]2c3cccc4c3c(cn4C)C[C@H]21 | 5.62 µM [falling, partial curve, poor fit] | 6.31 µM [falling, partial curve, poor fit]
21 | CNCCC(Oc1ccc(C(F)(F)F)cc1)c1ccccc1 (centres undefined) | 12.6 µM [falling, partial curve, poor fit] and 158 nM [falling, full curve, poor fit] | 1.58 µM [rising, full curve] and 4.47 nM [falling, full curve, poor fit] and 11.2 µM [falling, partial curve, poor fit]
22 | COc1cc(CN2C(=O)NC(=O)C3(Cc4cc(C)ccc4N(C)C3)C2=O)cc(OC)c1 (centres undefined) | 14.1 µM [rising, single point] | –
23 | Oc1ccc(Cl)cc1Cc1cc(Cl)ccc1O | 3.55 µM [rising, single point] | 1.58 µM [falling, partial curve, poor fit]
24 | CC12CN3CC(C)(CN(C1)C3c1ccncc1)C2=O (centres undefined) | 5.62 µM [falling, single point] | –
25 | CC(=O)Nc1ccc(S(=O)(=O)N2CCSC2c2ccc(C)cc2)cc1 (centres undefined) | 14.1 µM [rising, partial curve] | 1.41 µM [rising, full curve]

Row | SMILES | AC50 [1] | AC50 [2]
26 | O=C1CC(c2cccnc2)=NN1c1ccc(Cl)cc1Cl | 14.1 µM [rising, partial curve, poor fit] | –
27 | NC(=O)c1ncn([C@@H]2O[C@H](CO)[C@@H](O)[C@H]2O)n1 | 0.00398 µM [falling, full curve, poor fit] | 5.62 µM [falling, partial curve, poor fit]
28 | CCN(CC)S(=O)(=O)c1ccc(C)c(NCC(=O)Nc2ccc(C#N)c(Cl)c2)c1 | 28.2 µM [rising, single point] | 35.5 µM [rising, single point]
29 | CC(C)C(=O)Nc1ccc(C(=O)NCc2cccnc2)cc1 | 35.5 µM [rising, single point] | –
30 | O=C1NC(=O)C2(Cc3ccccc3N3CCCC32)C(=O)N1c1ccccc1 (centres undefined) | 0.631 µM [rising, full curve, poor fit] | –
31 | COc1cccc(NP(=O)(Oc2ccccc2Cl)Oc2ccccc2Cl)c1 | – | 35.5 µM [falling, partial curve, poor fit]
32 | COP(=O)(OC)C1(O)C(=O)Nc2ccc(Br)cc21 (centres undefined) | 2.51 µM [rising, partial curve] | –
33 | C/C(O)=C(\C#N)C(=O)Nc1cc(Br)ccc1Br | 20 µM [rising, single point] | 20 µM [rising, partial curve, poor fit]
34 | CNC(=O)Oc1cccc2c1OC(C)(C)C2 | 14.1 µM [rising, partial curve, poor fit] | 17.8 µM [rising, partial curve]
35 | CC(C)COC(=O)OCN1C(=O)CN(CCN2CC(=O)N(COC(=O)OCC(C)C)C(=O)C2)CC1=O | 10 µM [rising, partial curve, poor fit] | –
36 | O=C(O)C1C2CCC(O2)C1C(=O)Nc1ccc(Cl)cc1 (centres undefined) | 35.5 µM [rising, single point] | –
37 | Cc1ccc(CN2C(=O)c3ccccc3Sc3ccc(C(=O)N4CCC5(CC4)OCCO5)cc32)cc1 | 0.02 µM [falling, full curve, poor fit] | 5.62 µM [falling, partial curve, poor fit]
38 | COC(=O)C1=C(N)Oc2cc(C)oc(=O)c2C12C(=O)Nc1ccccc12 (centres undefined) | 0.178 µM [rising, full curve, poor fit] | –
39 | Oc1ccc2c3c1O[C@H]1[C@@H](O)CC[C@@]4(O)C(C2)N(CC2CCC2)CCC314 (some centres undefined) | 11.2 µM [falling, partial curve, poor fit] | 35.5 µM [falling, single point]
40 | O=c1[nH]c(=O)n(Cc2ccco2)c(O)c1C=NCc1ccco1 | – | 35.5 µM [rising, single point]
41 | CN1C(=O)N(C)C(=O)C2(Cc3cc([N+](=O)[O-])ccc3N(C)C2)C1=O | 0.0126 µM [falling, full curve, poor fit] | –
42 | CCCC(C)(COC(N)=O)COC(=O)NC(C)C (centres undefined) | 0.00562 µM [falling, full curve, poor fit] | –
43 | CCC1(C)CC(=O)NC(=O)C1 | 11.2 µM [rising, partial curve, poor fit] | 6.31 µM [rising, partial curve, poor fit]
44 | Cc1nc2ccc(Br)cc2c(=O)n1-c1ccc([N+](=O)[O-])c(C(F)(F)F)c1 | 0.282 µM [falling, single point] | –
45 | CC(c1ncncc1F)[C@](O)(Cn1cncn1)c1ccc(F)cc1F (some centres undefined) | 15.8 µM [falling, single point] | –
46 | CCN(CC)C(=O)c1c(C)[nH]c(=S)c(C#N)c1-c1ccco1 | 0.00398 µM [falling, full curve, poor fit] | –
47 | CN1[C@@H]2CC[C@H]1CC(OC(=O)C1C=Nc3ccccc31)C2 (some centres undefined) | 35.5 µM [rising, single point] | –
48 | COc1cc([C@@H]2c3cc4c(cc3[C@H](O)C3COC(=O)[C@@H]32)OCO4)cc(OC)c1OC (some centres undefined) | 0.0141 µM [falling, full curve] | 0.0141 µM [falling, full curve]
49 | NN=C(N)N | 0.0158 µM [rising, full curve, poor fit] | –
